{
  "source": "patent US20120124684A1",
  "binders": {"B1": {"name": "αBC-AAE with an N-terminal HA tag (protein, not shown: small tags and cut ends)", "chain": "DIAIHHPWIRRPFFPFHAPSRLFDQFFGEHLLESDLFSTATSLAPFYLRPPSFLRAPEWIDTGLSEMRMEKDRFSVNLDVKHFSPEELKVKVLGDVIEVHGKHEERQDEHGFISREFHRKYRIPADVDPLTITSSLSSDGVLTVNGPRKQASGPERTIPITREEKPAVTAAPKK"}},
  "target": "adenine nucleotide translocase (ANT), neonatal rat cardiomyocyte mitochondria (rat)",
  "assay": "co-immunoprecipitation with anti-HA beads from NRVCM mitochondrial extract, immunoblot for ANT",
  "note": "Results are given in words; binding and its absence hold for the method and conditions named. In cells and extracts the contact can be indirect. Sequences can lack the tags named with a protein.",
  "data": [
    {"binder": "B1", "values": [
      {"measurement": "binding", "value": "no binding"}
    ]}
  ]
}
